Some results were stated once for a whole list of compounds, not compound by compound.
Molecular target: T1, NOX2 (Homo sapiens, UniProt P04839)
T1 construct: Used for the NOX2 activity assay was human leukemia 60 cells (HL-60), which are widely, universally used to assess NOX2 activity; endogenous in cells
T1 sequence (P04839 2-570 limits assumed): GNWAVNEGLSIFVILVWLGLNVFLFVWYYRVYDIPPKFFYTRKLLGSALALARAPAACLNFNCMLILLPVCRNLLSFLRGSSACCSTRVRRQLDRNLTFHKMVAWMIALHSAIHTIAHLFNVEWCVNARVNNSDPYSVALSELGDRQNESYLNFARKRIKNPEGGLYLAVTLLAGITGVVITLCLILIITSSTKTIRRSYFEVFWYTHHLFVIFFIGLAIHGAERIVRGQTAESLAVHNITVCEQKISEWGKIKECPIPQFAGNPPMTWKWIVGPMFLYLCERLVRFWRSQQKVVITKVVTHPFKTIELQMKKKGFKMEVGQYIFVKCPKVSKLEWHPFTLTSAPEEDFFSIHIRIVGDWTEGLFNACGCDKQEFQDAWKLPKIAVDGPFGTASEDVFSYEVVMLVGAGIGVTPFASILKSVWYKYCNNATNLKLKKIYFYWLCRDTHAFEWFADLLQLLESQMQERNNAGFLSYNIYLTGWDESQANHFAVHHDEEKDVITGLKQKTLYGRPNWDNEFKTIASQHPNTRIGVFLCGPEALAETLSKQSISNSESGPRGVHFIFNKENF
T1 sequence (P13498 2-195 partner limits assumed): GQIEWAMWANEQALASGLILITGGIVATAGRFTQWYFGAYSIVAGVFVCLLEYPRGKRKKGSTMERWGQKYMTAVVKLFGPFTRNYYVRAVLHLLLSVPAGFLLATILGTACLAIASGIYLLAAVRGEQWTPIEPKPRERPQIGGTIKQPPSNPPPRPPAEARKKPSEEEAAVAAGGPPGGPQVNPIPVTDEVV
Assay: NOX2 activity assay: PMA-induced ROS in ATRA-differentiated HL-60 cells (WST-1 or Amplex Red/HRP probe)
Assay type: cell-based
Settings: concentration-response, FIG. 1
Experimental: NOX activity was evaluated by measuring the reactive oxygen species (ROS) produced by NOX. The probes that were used to measure ROS were water soluble tetrazolium-1 (WST-1, superoxide-specific colorimetric probe) and Amplex Red/horseradish peroxidase (AR/HRP, hydrogen peroxide-specific fluorometric probe), and the concentration of the probes used was […]. For WST-1, the change in the absorbance at 450 nm was measured, and, for AR, the change in fluorescence signals was measured at 560 nm and 585 nm, respectively for excitation wavelength (Ex) and emission wavelength (Em). The optical signal was measured using the SpectraMax M3 microplate reader from Molecular Devices at 37° C. for 60 minutes.
Used for the NOX2 activity assay was human leukemia 60 cells (HL-60), which are widely, universally used to assess NOX2 activity. 1×10^5 cells/mL of HL-60 were treated with […] all-trans-retinoic acid (ATRA) for 4 days to induce differentiation. Differentiated HL-60 (diff. HL-60) was centrifuged at 200 g for 5 minutes and washed twice with HBSS. Differentiation was induced to reach 3×10^4 cells/well on a 96-well plate (diff). HL-60 was seeded. The test material was treated to cells and left in a 37° C. incubator for 60 minutes. […] 200 ng/mL phorbol 12-myristate 13-acetate (PMA) was used as the NOX2 activator, and the production amount of ROS induced by PMA was measured for 60 minutes. […]

| SMILES | maximal NOX2 inhibitory ability |
| --- | --- |
| CC12CC(NC(=O)N1c1cccc(C(=O)N3CCc4ccccc4C3)c1)c1cc(-c3ccsc3)ccc1O2 (centres unmarked) [Compound 26a, 2-Methyl-3-(3-(1,2,3,4-tetrahydroisoquinoline-2-carbonyl)phenyl)-8-(thiophen-3-yl)-5,6-dihydro-2H-2,6-methanobenzo[g][1,3,5]oxadiazocin-4(3H)-one] | 70-80% |
| CC12CC(NC(=O)N1c1cccc(C(=O)N3CCc4ccccc4C3)c1)c1cc(-c3ccoc3)ccc1O2 (centres unmarked) [Compound 26b, 8-(Furan-3-yl)-2-methyl-3-(3-(1,2,3,4-tetrahydroisoquinoline-2-carbonyl)phenyl)-5,6-dihydro-2H-2,6-methanobenzo[g][1,3,5]oxadiazocin-4(3H)-one] | 70-80% |
